Experimental data: patent publication US20200239927A1, “SENSOR FOR CYANURIC ACID DETECTION” (WISCONSIN ALUMNI RESEARCH FOUNDATION, priority 2019, published 2020)
Some results were stated once for a whole list of compounds, not compound by compound.

Test system: AtzR
Test: Cyanuric acid dose response and visual detection limit of the AtzR biosensor
Format: cell-based, E. coli DH10B
Protocol: To obtain transfer functions of various reporter and sensor plasmid pairs, different concentrations of cyanuric acid were delivered via DMSO to cultures (less than 1% of the total volume). After growth for 16 hours, fluorescence was measured and normalized similar to previous experiments.
Visual detection limit: To determine the visual detection limit in LB and MOPS media, E. coli DH10B with or without constitutive GFP expression was grown in LB with appropriate antibiotics for 16 hours in […] on a shaker(1100 rpm). Two 2 mL aliquots from each culture were spun down at 5000 G for 5 minutes in a benchtop centrifuge at room temperature. The media was aspirated out and the cell pellets resuspended in either 2 mL LB or 2 mL MOPS media. The spin-down and resuspension procedure was repeated two more times. Then, cells without GFP in LB (or MOPS) were mixed with cells carrying GFP in LB (or MOPS) to 150 μL with various ratios (cells without GFP-cells with GFP: 100%-0%, 95%-5%, 90%-10%, 85%-15%, 70%-30%, 55%-45%, 30%-70%, 0%-100%). After measuring the fluorescence and OD600 of the mixed cultures in a 96-well plate, the cultures were transferred to ultra-thin strip tubes ordered by increasing percentage of cells carrying GFP. Five individuals were asked to identify the culture that they could be confident to tell apart (in terms of the color of the culture) from the culture containing no cells with GFP (100%-0%). The identification process for cultures in LB and MOPS was performed by placing culture tubes in front a piece of white paper. The weighted average of fluorescence of cultures was identified by five individuals for cultures in LB and MOPS. The calculated weights averages were defined and used as the visual detection limits in FIGS. 7-10 related experiments.

Promoter 15: group 2 promoter variant; RBS placed upstream of -35 (DNA GGTGCCGATCCGGCACCTTGACATCGCATCTTTTTGTACCTATAATAGATTCATGATGA; expressed or natural sequence)
cyanuric acid concentration above which a net visually detectable GFP signal is given (minimal media (7 ppm)): > 50 µM | cyanuric acid concentration above which a net visually detectable GFP signal is given (rich media (11 ppm)): above 75 uM

B1: Promoter 1: group 1 promoter variant; Pseudomonas -10 site replaced with consensus E. coli -10 site (nucleic acid)
DNA: ATGCGAGTCAAAGCAAGATCGGTGCCGGATCGGCACCAGTTAGGTCGGAAAAAGGCGGCAGTCAAGTGCGCAGGGCGGCGTTATAATTGAACGAA
modifications: expressed or natural sequence
notes: group 1 promoter variant; Pseudomonas -10 site replaced with consensus E. coli -10 site
cyanuric acid concentration above which a net visually detectable GFP signal is given (minimal media (7 ppm)): > 50 µM | cyanuric acid concentration above which a net visually detectable GFP signal is given (rich media (11 ppm)): above 75 uM

B2: Promoter 2: group 1 promoter variant; sequence 3' of ABS 3 replaced with corresponding region of apFab71 (nucleic acid)
DNA: TCGGTGCCGGATCGGCACCAGTTAGGTCGGAAAAAGGCGGCAGTCAAGTGCGCTTTTTGTACCTATAATAGATTCATGATGA
modifications: expressed or natural sequence
cyanuric acid concentration above which a net visually detectable GFP signal is given (minimal media (7 ppm)): > 50 µM | cyanuric acid concentration above which a net visually detectable GFP signal is given (rich media (11 ppm)): above 75 uM
